# The list shows a part of the results, in another mix than the full data. At the low end of the ranking, values are background and their order means little.
# By UniProt entry, the sequences of proteins in these tests, tags left out. Where a name states a change or a piece, a line headed by the entry shows the natural chain unless it says otherwise.
# UniProt Q01892: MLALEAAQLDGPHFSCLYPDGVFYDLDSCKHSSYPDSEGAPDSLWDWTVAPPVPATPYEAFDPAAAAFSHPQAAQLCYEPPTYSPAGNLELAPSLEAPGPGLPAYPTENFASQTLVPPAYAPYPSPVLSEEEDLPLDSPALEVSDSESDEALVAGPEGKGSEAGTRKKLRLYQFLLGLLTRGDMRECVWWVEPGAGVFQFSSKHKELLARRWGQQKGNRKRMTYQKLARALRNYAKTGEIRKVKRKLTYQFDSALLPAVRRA
# Target: SPIB (UniProt Q01892)
# Test: DAPPL (digital affinity profiling via proximity ligation, sequencing)
# Conditions: 10 mM Tris-HCl pH 7.5, 50 mM NaCl, 1 mM DTT, 4% glycerol, room temperature, 30 min; GST-TFs on glutathione beads, 16-mer random dsDNA library, 0.1% …; high values mean tight binding; double strand, one strand shown; scale: fold enrichment (6-mer frequency, TF over GST control)
row,Sequence,binding signal
1,CGCCCT,1.36
2,GCTCGC,1.42
3,TGTAAT,1.25
4,TGTAAA,1.2
5,CTAAAG,1.31
6,GCGATG,1.29
7,ATCATA,1.18
8,CGCCTC,1.51
9,TATTCT,1.19
10,GGAAAC,1.39
11,CTCTTC,1.84
12,TGAAAA,0.978
13,AAAAGC,1.23
14,CCTACA,1.17
15,TTTCGA,1.48
16,GGTATT,1.2
17,AATAGC,1.16
18,TTTAGG,1.15
19,CCTGCA,1.24

row,Sequence,binding signal
1,ATCATT,0.97
2,ACGAAC,1.22
3,TGTCCA,1.13
4,TCTCCG,1.52
5,GTAAAA,1.1
6,TGTAGC,1.03
7,CTAATC,1.45
8,CCGCAC,1.41
9,TACATG,1.16
10,TTGTAC,1.44
11,TACCTC,1.21
12,CTAAGA,1.24
13,CCTTGG,1.32
14,ACATAT,1.2
15,TATGGA,1.17
16,CCTAAA,1.26
17,GCCCCT,1.21
18,ATTGCT,1.3
19,AAATTT,1.45

# Some of the entries so far, bar-delimited:
row | Sequence | binding signal
15 | TTTCGA | 1.48
9 | TACATG | 1.16
